Data source: PubChem BioAssay AID1224828 (NIAID, 2016)

Screen: 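Knock-downs that increase or decrease LPS-induced p65 nuclear translocation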 (primary screen)
System: mouse RAW264.7 G9 macrophage reporter cells (GFP-p65, Tnf promoter-mCherry)
Reagents: siRNA pool against mouse genes, 100 nM
Time to read-out: 2 days siRNA transfection, then 40 min LPS before fixation
Conditions: LPS (Salmonella minnesota R595) at 10 ng/ml
Read-out: 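Imaged p65 nuclear translocation ratio, normalised to the plate median, converted to robust z-scores and averaged across two replicates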
Reading the numbers: p65 translocation robust z-score: higher = more nuclear NF-kappaB p65 after LPS than the plate median; nuclear/cytoplasmic p65 ratio: higher = more nuclear NF-kappaB p65
Active means: 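Called active when z exceeds 3.3 or falls under -1.56 (median of Tlr4 controls), giving activity score of at least 50; no calls for control wells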
Calls: active = hit (p65 shift raised or lowered); inactive = no clear change
The whole screen tested about 17,000 reagents; below is an unselected part. In the full data, 762 (4.5%) are marked active. 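Active calls include both raised and lowered p65 entry, mostly lowered; wells with fewer than 50 cells lack a z-score.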 The raw values are shown without normalisation. The numbers tell different reagents against one gene apart.

| Gene | reagent | p65 translocation robust z-score | nuclear/cytoplasmic p65 ratio, rep 1 | nuclear/cytoplasmic p65 ratio, rep 2 | low cell count flag | call |
| --- | --- | --- | --- | --- | --- | --- |
| Map3k3 (mitogen-activated protein kinase kinase kinase 3) | 1 | -0.27 | 1.62 | 1.36 | enough cells to score | inactive |
| Hat1 (histone aminotransferase 1) | 1 | 0.07 | 1.4 | 1.43 | enough cells to score | inactive |
| Cyp2j9 (cytochrome P450, family 2, subfamily j, polypeptide 9) | 1 | 0.27 | 1.61 | 1.83 | enough cells to score | inactive |
| Tcte2 (t-complex-associated testis expressed 2) | 1 | – | 1.08 | 1.1 | fewer than 50 cells per well; well left out of scoring | inactive |
| Mpc1 | 1 | – | 1.56 | 1.42 | fewer than 50 cells per well; well left out of scoring | inactive |
| Mia2 (MIA SH3 domain ER export factor 2) | 1 | -1.06 | 1.58 | 1.37 | enough cells to score | inactive |
| Mia2 (MIA SH3 domain ER export factor 2) | 2 | 1.17 | 1.89 | 1.73 | enough cells to score | inactive |
| Vmn2r29 (vomeronasal 2, receptor 29) | 1 | 0.88 | 1.5 | 1.72 | enough cells to score | inactive |
| Usp39 (ubiquitin specific peptidase 39) | 1 | 0.77 | 1.5 | 1.3 | enough cells to score | inactive |
| Inha (inhibin alpha) | 1 | – | 1.47 | 1.26 | fewer than 50 cells per well; well left out of scoring | inactive |
| Trim42 (tripartite motif-containing 42) | 1 | 0.64 | 1.55 | 1.23 | enough cells to score | inactive |
| Zc3h12a (zinc finger CCCH type containing 12A) | 1 | -1.71 | 1.35 | 1.53 | enough cells to score | active |
| Or10ag57 (olfactory receptor family 10 subfamily AG member 57) | 1 | 1.47 | 1.9 | 1.78 | enough cells to score | inactive |
| Stau1 (staufen double-stranded RNA binding protein 1) | 1 | 0.69 | 1.51 | 1.27 | enough cells to score | inactive |
| Guk1 (guanylate kinase 1) | 1 | 0.81 | 1.67 | 1.75 | enough cells to score | inactive |
| Armcx1 (armadillo repeat containing, X-linked 1) | 1 | 0.03 | 1.61 | 1.51 | enough cells to score | inactive |
| Igfbp7 (insulin-like growth factor binding protein 7) | 1 | -0.12 | 1.44 | 1.34 | enough cells to score | inactive |
| Cwc25 (CWC25 spliceosome-associated protein) | 1 | -1.6 | 1.3 | 1.24 | enough cells to score | active |
| Shc3 (src homology 2 domain-containing transforming protein C3) | 1 | 1.71 | 1.8 | 1.8 | enough cells to score | inactive |
| Hspa4l (heat shock protein 4 like) | 1 | 0.31 | 1.47 | 1.47 | enough cells to score | inactive |
| Olig1 (oligodendrocyte transcription factor 1) | 1 | – | 0.985 | 1.08 | fewer than 50 cells per well; well left out of scoring | inactive |
| Sox13 (SRY (sex determining region Y)-box 13) | 1 | -0.79 | 1.3 | 1.15 | enough cells to score | inactive |
| Urgcp (upregulator of cell proliferation) | 1 | – | 1.3 | 1.02 | fewer than 50 cells per well; well left out of scoring | inactive |
| Dennd2c (DENN domain containing 2C) | 1 | -0.56 | 1.28 | 1.48 | enough cells to score | inactive |
| Dbi (diazepam binding inhibitor) | 1 | -0.06 | 1.45 | 1.37 | enough cells to score | inactive |
| Fsd2 (fibronectin type III and SPRY domain containing 2) | 1 | 0.45 | 1.46 | 1.64 | enough cells to score | inactive |
| Mlycd (malonyl-CoA decarboxylase) | 1 | 1.27 | 1.94 | 1.82 | enough cells to score | inactive |
| Or8d1 (olfactory receptor family 8 subfamily D member 1) | 1 | -0.23 | 1.62 | 1.4 | enough cells to score | inactive |
| Mex3d (mex3 RNA binding family member D) | 1 | -0.98 | 1.24 | 1.15 | enough cells to score | inactive |
| Snx31 (sorting nexin 31) | 1 | 0.15 | 1.39 | 1.19 | enough cells to score | inactive |
| Ttc17 (tetratricopeptide repeat domain 17) | 1 | – | 1.43 | 1.5 | fewer than 50 cells per well; well left out of scoring | inactive |
| A430090L17Rik (RIKEN cDNA A430090L17 gene) | 1 | 1.31 | 1.46 | 1.81 | enough cells to score | inactive |
| Plxnb1 (plexin B1) | 1 | -0.61 | 1.42 | 1.32 | enough cells to score | inactive |
| Saa2 (serum amyloid A 2) | 1 | -0.61 | 1.46 | 1.47 | enough cells to score | inactive |
| Serpina3k (serine (or cysteine) peptidase inhibitor, clade A, member 3K) | 1 | – | 1.47 | 1.29 | fewer than 50 cells per well; well left out of scoring | inactive |
| Arrdc3 (arrestin domain containing 3) | 1 | -1.24 | 1.35 | 1.57 | enough cells to score | inactive |
| Jph3 (junctophilin 3) | 1 | 2.44 | 1.71 | 1.78 | enough cells to score | inactive |
| Elovl4 (ELOVL fatty acid elongase 4) | 1 | -1.96 | 1.33 | 1.3 | enough cells to score | active |
| Hsd17b4 (hydroxysteroid (17-beta) dehydrogenase 4) | 1 | -1.1 | 1.31 | 1.21 | enough cells to score | inactive |
| Plcb2 (phospholipase C, beta 2) | 1 | 0.9 | 1.61 | 1.54 | enough cells to score | inactive |
| Auts2 (autism susceptibility candidate 2) | 1 | -1.24 | 1.16 | 1.29 | enough cells to score | inactive |
| Scamp4 | 1 | – | 1.58 | 1.53 | fewer than 50 cells per well; well left out of scoring | inactive |
| Ugt2b37 (UDP glucuronosyltransferase 2 family, polypeptide B37) | 1 | -0.07 | 1.49 | 1.32 | enough cells to score | inactive |
| Cryl1 (crystallin, lambda 1) | 1 | -1.47 | 1.28 | 1.63 | enough cells to score | inactive |
| Mgat3 (mannoside acetylglucosaminyltransferase 3) | 1 | 0.19 | 1.79 | 1.54 | enough cells to score | inactive |
| Pigc (phosphatidylinositol glycan anchor biosynthesis, class C) | 1 | 0.04 | 1.34 | 1.25 | enough cells to score | inactive |
| Ctcf (CCCTC-binding factor) | 1 | -1.1 | 1.35 | 1.22 | enough cells to score | inactive |
| Slc35g3 | 1 | 1.43 | 1.88 | 1.85 | enough cells to score | inactive |
| Klk1b21 (kallikrein 1-related peptidase b21) | 1 | -0.09 | 1.49 | 1.47 | enough cells to score | inactive |
| Dnajb6 (DnaJ heat shock protein family (Hsp40) member B6) | 1 | 1.9 | 1.42 | 1.6 | enough cells to score | inactive |
| Or6c33 (olfactory receptor family 6 subfamily C member 33) | 1 | -0.04 | 1.44 | 1.3 | enough cells to score | inactive |
| Hfe (homeostatic iron regulator) | 1 | 0.65 | 1.57 | 1.42 | enough cells to score | inactive |
| Anapc11 (anaphase promoting complex subunit 11) | 1 | -1.02 | 1.48 | 1.45 | enough cells to score | inactive |
| Epha4 (Eph receptor A4) | 1 | 0.21 | 1.72 | 1.51 | enough cells to score | inactive |
| Lrrc4b (leucine rich repeat containing 4B) | 1 | 0.03 | 1.72 | 1.55 | enough cells to score | inactive |
| Gdap1 (ganglioside-induced differentiation-associated-protein 1) | 1 | 0.17 | 1.43 | 1.42 | enough cells to score | inactive |
| Saxo2 (stabilizer of axonemal microtubules 2) | 1 | 0.76 | 1.72 | 1.88 | enough cells to score | inactive |
| Spata33 (spermatogenesis associated 33) | 1 | 2.07 | 1.53 | 1.43 | enough cells to score | inactive |
| Mybl2 (Myb proto-oncogene like 2) | 1 | -0.91 | 1.17 | 1.24 | enough cells to score | inactive |
| Arhgef19 (Rho guanine nucleotide exchange factor 19) | 1 | 2.18 | 1.72 | 1.66 | enough cells to score | inactive |
| Ndufb2 (NADH:ubiquinone oxidoreductase subunit B2) | 1 | -0.01 | 1.74 | 1.63 | enough cells to score | inactive |
| Tff1 (trefoil factor 1) | 1 | 0.19 | 1.32 | 1.21 | enough cells to score | inactive |
| Or2q1 (olfactory receptor family 2 subfamily Q member 1) | 1 | – | 1.64 | 1.44 | fewer than 50 cells per well; well left out of scoring | inactive |
| Cers2 (ceramide synthase 2) | 1 | 1.63 | 1.74 | 1.68 | enough cells to score | inactive |
| Prep (prolyl endopeptidase) | 1 | -0.45 | 1.37 | 1.12 | enough cells to score | inactive |
| Serpinb9f (serine (or cysteine) peptidase inhibitor, clade B, member 9f) | 1 | – | 1.33 | 1.11 | fewer than 50 cells per well; well left out of scoring | inactive |
| Ddx41 (DEAD box helicase 41) | 1 | 0.26 | 1.63 | 1.57 | enough cells to score | inactive |
| Calml3 (calmodulin-like 3) | 1 | -1.15 | 1.43 | 1.59 | enough cells to score | inactive |
| Iqcb1 (IQ calmodulin-binding motif containing 1) | 1 | 1.07 | 1.49 | 1.78 | enough cells to score | inactive |
| Acp6 (acid phosphatase 6, lysophosphatidic) | 1 | 0.46 | 1.74 | 1.64 | enough cells to score | inactive |
| Or11g24 (olfactory receptor family 11 subfamily G member 24) | 1 | – | 1.59 | 1.2 | fewer than 50 cells per well; well left out of scoring | inactive |
| Cnot9 (CCR4-NOT transcription complex, subunit 9) | 1 | 0.21 | 1.56 | 1.36 | enough cells to score | inactive |
| Sult1c1 (sulfotransferase family, cytosolic, 1C, member 1) | 1 | 0.64 | 1.53 | 1.3 | enough cells to score | inactive |
| 2810032G03Rik (RIKEN cDNA 2810032G03 gene) | 1 | -1 | 1.29 | 1.31 | enough cells to score | inactive |
| Abca6 (ATP-binding cassette, sub-family A member 6) | 1 | 0.18 | 1.6 | 1.75 | enough cells to score | inactive |

Called active, of those listed so far:
| Gene | reagent | p65 translocation robust z-score | nuclear/cytoplasmic p65 ratio, rep 1 | nuclear/cytoplasmic p65 ratio, rep 2 | low cell count flag | call |
| --- | --- | --- | --- | --- | --- | --- |
| Zc3h12a (zinc finger CCCH type containing 12A) | 1 | -1.71 | 1.35 | 1.53 | enough cells to score | active |
| Cwc25 (CWC25 spliceosome-associated protein) | 1 | -1.6 | 1.3 | 1.24 | enough cells to score | active |
| Elovl4 (ELOVL fatty acid elongase 4) | 1 | -1.96 | 1.33 | 1.3 | enough cells to score | active |
